From patent US20220169643A1, “ESTROGEN RECEPTOR DEGRADING PROTACS” (AstraZeneca AB, priority 2019, published 2022) come the findings set out here.

Amino acid sequences for entries named in this document (tags omitted). Residues count along the entry.
UniProt P03372, 307-554 limits assumed: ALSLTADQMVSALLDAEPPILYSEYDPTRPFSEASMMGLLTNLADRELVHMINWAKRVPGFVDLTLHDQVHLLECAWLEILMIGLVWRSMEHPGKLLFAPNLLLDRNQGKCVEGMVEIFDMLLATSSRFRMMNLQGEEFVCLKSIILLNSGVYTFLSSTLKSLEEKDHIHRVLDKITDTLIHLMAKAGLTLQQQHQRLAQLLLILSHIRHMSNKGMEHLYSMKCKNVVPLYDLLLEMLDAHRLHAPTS

The structures appear in SMILES notation. pIC50: −log10 of the molar value. Structures were worked out from names or drawings and are uncertain.

Broadly, the pIC50 is −log10 of the IC50, conventionally taken in molar units.

In this assay the target is Estrogen Receptor Alpha Ligand binding domain (ER alpha-LBD (GST)) (Homo sapiens, UniProt P03372). Nature of the assay: ERα Binding Assay (LanthaScreen TR-FRET competition). As to conditions: read-out: ER binding IC50, competitive displacement of Fluormone ES2 tracer from recombinant human ER alpha-LBD (residues 307-554), 4 hours at room temperature. The procedure: The ability of compounds to bind to isolated Estrogen Receptor Alpha Ligand binding domain (ER alpha-LBD (GST)) was assessed in competition assays using a LanthaScreen™ Time-Resolved Fluorescence Resonance Energy Transfer (TR-FRET) detection end-point. For the LanthaScreen TR-FRET endpoint, a suitable fluorophore (Fluormone ES2, ThermoFisher, Product code P2645) and recombinant human Estrogen Receptor alpha ligand binding domain, residues 307-554 (expressed and purified in-house) were used to measure compound binding. The assay principle is that ER alpha-LBD (GST) is added to a fluorescent ligand to form a receptor/fluorophore complex. A terbium-labelled anti-GST antibody (Product code PV3551) is used to indirectly label the receptor by binding to its GST tag, and competitive binding is detected by a test compound's ability to displace the fluorescent ligand, resulting in a loss of TR-FRET signal between the Th-anti-GST antibody and the tracer. The assay was performed as follows with all reagent additions carried out using the Beckman Coulter BioRAPTR FRD microfluidic workstation: • 1. Acoustic dispense 120 nL of the test compound into a black low volume 384 well assay plates. • 2. Prepare 1×ER alpha-LBD/Tb-anti-GST Ab in ES2 screening buffer and incubate for 15 minutes. • 3. Dispense 6 μL of the 1×[…]/Th-anti-GST Ab reagent into each well of the assay plate followed by 6 μL of Fluorophore reagent into each well of the assay plate • 4. Cover the assay plate to protect the reagents from light and evaporation, and incubate at room temperature for 4 hours. • 5. […]
In total 120 nL of compound plus DMSO were added to each well and compounds were tested in a 12-point concentration response format over a final compound concentration range of 10, 2.917, 1.042, 0.2083, 0.1, 0.0292, 0.0104, 0.002083, 0.001, 0.0002917, 0.0001042, and 0.00001 μM respectively. […] Competitive ER alpha binding was expressed as an IC50 value. This was determined by calculation of the concentration of compound that was required to give a 50% reduction in tracer compound binding to ER alpha-LBD.
In general terms: TR-FRET usually uses a lanthanide donor and a delayed reading to cut background.
`C[C@@H]1Cc2c([nH]c3ccccc23)[C@@H](c2cnc(N3CCC4(CC3)CC(CN3CCC5(CC3)CCN(c3ccc6c(c3)CN(C3CCC(=O)NC3=O)C6=O)CC5)C4)nc2)N1CC(C)(C)F` (stereo partly drawn): the negative-log IC50 (pIC50) was 8.68.
The value for `C[C@@H]1Cc2c([nH]c3ccccc23)[C@@H](c2cnc(OCCCCCN3CCC4(CC3)CCN(c3ccc5c(c3)CN(C3CCC(=O)NC3=O)C5=O)CC4)nc2)N1CC(C)(C)F` (stereo partly drawn) was 8.17.
As for `C[C@@H]1Cc2c([nH]c3ccccc23)[C@@H](c2cnc(N3CCC4(CCN(CCN5CCN(c6ccc7c(c6)CN(C6CCC(=O)NC6=O)C7=O)CC5)C(=O)C4)CC3)nc2)N1CC(C)(C)F` (stereo partly drawn), the figure is 8.59.
